Some of these results come from one statement about several compounds together.
target: T1, Cox-1 (Rattus norvegicus, UniProt Q63921); experiment: COXs inhibition, rat whole blood Cox-1; format: cell-based; conditions: read-out: ratWB Cox-1 IC50
T1 construct: from tissue; host or cells: rat whole blood ('ratWB')
T1 sequence (Q63921 27-602): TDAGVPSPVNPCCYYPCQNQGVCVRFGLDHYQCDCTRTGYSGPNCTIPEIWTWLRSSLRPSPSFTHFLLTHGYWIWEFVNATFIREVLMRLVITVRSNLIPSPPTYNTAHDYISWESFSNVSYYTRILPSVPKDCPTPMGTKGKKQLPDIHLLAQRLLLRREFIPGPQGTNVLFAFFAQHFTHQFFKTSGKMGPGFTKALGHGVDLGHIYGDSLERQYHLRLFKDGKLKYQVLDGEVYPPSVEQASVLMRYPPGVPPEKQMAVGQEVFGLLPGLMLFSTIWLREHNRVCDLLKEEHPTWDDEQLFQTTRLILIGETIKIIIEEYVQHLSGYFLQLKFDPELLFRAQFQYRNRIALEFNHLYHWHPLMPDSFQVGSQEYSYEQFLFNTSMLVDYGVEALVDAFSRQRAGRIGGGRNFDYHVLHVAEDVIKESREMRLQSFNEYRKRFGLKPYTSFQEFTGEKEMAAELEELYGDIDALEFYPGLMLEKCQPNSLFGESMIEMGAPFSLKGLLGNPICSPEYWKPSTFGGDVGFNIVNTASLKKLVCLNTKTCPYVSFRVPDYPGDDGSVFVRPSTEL
Protocol: Methods for Testing Compounds on Inhibiting COXs
Activities of inhibiting COXs can be investigated by the manner described in Proc. Natl. Acad. Sci. USA 96, 7563, […].
As a result, compounds of the present invention are less or no potent COXs inhibitors. A result of COXs inhibition of the selected compounds (Example Nos. 1, 3, 12, 188, 474, 497, 507, 513, 527, 533, 562, and 638) are: ratWB Cox-1 IC50>30 μM and ratWB IC50>30 μM.

| Compound | IC50 [µM] |
| --- | --- |
| CC(C)(Oc1cc(-c2ccc(F)cc2)nc(-c2ccc(Cl)c(F)c2)n1)C(=O)[O-].[Na+] [Example 474] | > 30 |
| CC(C)(Oc1cc(-c2cccc3cccnc23)nc(-c2ccc(Cl)c(F)c2)n1)C(=O)[O-].[Na+] [Example 497] | > 30 |
| CCC(CC)(Oc1cc(-c2ccccc2OC)nc(-c2ccc(Cl)c(F)c2)n1)C(=O)O [Example 507] | > 30 |
| COc1ccccc1-c1cc(OC2(C(=O)O)CC2)nc(-c2ccc(Cl)c(F)c2)n1 [Example 513] | > 30 |
| COCc1ccc(-c2cc(OC3(C(=O)[O-])CC3)nc(-c3ccc(Cl)c(F)c3)n2)cc1.[Na+] [Example 527] | > 30 |
| CCOc1ncccc1-c1cc(OC2(C(=O)[O-])CC2)nc(-c2ccc(Cl)c(F)c2)n1.[Na+] [Example 533] | > 30 |
| COc1ccccc1-c1cc(OCC(=O)O)nc(-c2ccc(Cl)c(F)c2)c1 [Example 638] | > 30 |

Reference: patent US8575338B2, “Pyrimidine, pyridine and triazine derivatives as maxi-K channel openers” (Mitsubishi Tanabe Pharma Corporation, priority 2008, dated 2013)
